Data on six sequences can be found in PMC7125119.

The chains behind the UniProt entries cited, without tags or fusion partners.
UniProt Q9NZI8, whole entry: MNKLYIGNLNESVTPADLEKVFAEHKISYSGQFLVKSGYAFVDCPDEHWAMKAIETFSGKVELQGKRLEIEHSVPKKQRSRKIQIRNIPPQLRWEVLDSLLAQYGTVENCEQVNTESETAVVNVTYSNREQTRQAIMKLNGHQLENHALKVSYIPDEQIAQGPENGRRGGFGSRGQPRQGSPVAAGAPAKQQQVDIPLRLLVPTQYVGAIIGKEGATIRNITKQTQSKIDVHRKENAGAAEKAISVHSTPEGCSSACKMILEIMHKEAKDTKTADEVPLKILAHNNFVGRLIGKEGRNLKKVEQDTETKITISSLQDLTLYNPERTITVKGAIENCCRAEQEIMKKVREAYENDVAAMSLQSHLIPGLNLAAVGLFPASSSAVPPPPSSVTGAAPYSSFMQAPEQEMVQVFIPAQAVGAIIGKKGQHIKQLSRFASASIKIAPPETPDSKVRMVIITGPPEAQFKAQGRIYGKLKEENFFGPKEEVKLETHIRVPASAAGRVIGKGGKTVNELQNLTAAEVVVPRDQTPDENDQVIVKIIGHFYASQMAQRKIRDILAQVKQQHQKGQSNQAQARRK
UniProt Q15717, whole entry: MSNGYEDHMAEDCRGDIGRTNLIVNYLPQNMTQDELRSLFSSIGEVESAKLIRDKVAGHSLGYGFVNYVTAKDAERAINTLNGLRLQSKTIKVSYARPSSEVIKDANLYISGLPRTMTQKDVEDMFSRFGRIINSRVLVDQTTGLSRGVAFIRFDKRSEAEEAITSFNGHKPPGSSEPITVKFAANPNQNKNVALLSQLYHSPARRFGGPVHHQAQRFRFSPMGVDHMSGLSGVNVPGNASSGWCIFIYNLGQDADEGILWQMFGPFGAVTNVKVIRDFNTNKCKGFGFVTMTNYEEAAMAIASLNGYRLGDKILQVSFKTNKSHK
UniProt P11940, whole entry: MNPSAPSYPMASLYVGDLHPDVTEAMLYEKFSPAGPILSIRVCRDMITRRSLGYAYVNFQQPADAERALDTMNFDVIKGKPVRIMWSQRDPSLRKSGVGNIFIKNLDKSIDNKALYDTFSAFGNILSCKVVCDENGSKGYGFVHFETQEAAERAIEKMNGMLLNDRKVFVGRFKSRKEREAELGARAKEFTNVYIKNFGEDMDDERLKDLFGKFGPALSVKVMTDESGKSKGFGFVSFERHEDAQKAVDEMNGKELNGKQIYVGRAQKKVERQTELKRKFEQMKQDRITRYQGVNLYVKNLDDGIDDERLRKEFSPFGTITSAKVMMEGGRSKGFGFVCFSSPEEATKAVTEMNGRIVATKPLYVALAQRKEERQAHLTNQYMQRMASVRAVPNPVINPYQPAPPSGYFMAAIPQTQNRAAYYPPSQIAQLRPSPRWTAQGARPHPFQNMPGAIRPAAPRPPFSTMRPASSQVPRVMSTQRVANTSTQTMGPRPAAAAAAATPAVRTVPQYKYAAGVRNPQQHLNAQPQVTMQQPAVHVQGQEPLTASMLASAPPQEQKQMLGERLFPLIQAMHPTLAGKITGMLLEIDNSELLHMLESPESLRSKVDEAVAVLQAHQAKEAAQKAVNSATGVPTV

For at least one entry, the source does not settle the construct or the ends of the probe. For some assays here: At least one result comes from cells or an extract, where the contact may be indirect. For some assays here: No signal at the amounts used counts as a negative. At least one verdict rests on a figure or table, not on a statement of the authors. For some assays here: Tags and fusion partners may be left off the protein sequences shown.

For data set [1], the target named is IGF2BP1 (endogenous) (Homo sapiens) (UniProt Q9NZI8). The data set is described as follows: pull-down. Particulars: Pull-down: 1 nmol biotin-RNA on streptavidin-agarose, nuclear extract, 30 C 30 min, immunoblot, protein in an extract. For orientation: A western blot detects proteins with antibodies after separation by electrophoresis.
Another data set concerns the target HuR (UniProt Q15717). In words: pull-down. To be noted: Pull-down: 1 nmol biotin-RNA on streptavidin-agarose, nuclear extract, 30 C 30 min, immunoblot, protein in an extract.
In another data set the target is T1, MATR3 (UniProt P43243).
T1 sequence (looked up, limits assumed): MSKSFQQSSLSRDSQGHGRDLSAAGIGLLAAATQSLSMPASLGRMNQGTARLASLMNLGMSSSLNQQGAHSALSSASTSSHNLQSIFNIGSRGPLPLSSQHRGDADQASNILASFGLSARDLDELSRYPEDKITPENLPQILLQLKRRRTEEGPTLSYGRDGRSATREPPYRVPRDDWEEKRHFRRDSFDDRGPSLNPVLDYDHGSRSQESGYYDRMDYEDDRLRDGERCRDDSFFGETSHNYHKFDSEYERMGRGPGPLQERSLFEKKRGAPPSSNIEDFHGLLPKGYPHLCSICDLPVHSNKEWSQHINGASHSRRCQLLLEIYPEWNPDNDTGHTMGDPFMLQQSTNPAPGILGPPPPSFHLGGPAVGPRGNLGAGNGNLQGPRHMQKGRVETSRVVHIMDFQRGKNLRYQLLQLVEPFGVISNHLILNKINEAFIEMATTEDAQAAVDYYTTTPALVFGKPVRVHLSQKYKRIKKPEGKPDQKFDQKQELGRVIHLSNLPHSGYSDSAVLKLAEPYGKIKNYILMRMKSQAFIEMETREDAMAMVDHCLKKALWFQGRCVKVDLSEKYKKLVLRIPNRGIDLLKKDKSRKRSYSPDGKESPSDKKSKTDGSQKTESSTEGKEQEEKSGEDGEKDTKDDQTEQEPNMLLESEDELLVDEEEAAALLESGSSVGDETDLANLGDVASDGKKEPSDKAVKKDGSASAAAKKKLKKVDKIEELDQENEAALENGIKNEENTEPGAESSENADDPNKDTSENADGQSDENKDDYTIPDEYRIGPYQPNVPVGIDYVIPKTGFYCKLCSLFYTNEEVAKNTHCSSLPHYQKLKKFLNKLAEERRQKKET
The data set is described as follows: pull-down. To be noted: Pull-down: 1 nmol biotin-RNA on streptavidin-agarose, nuclear extract, 30 C 30 min, immunoblot, protein in an extract.

Another data set deals with PABPC1 (UniProt P11940). In words: pull-down. Particulars: Pull-down: 1 nmol biotin-RNA on streptavidin-agarose, nuclear extract, 30 C 30 min, immunoblot, protein in an extract.
Data set [2] deals with IGF2BP1-Flag (recombinant) (UniProt Q9NZI8). In words: EMSA. Particulars: no RBRP, or RBRP G19A (no increase); m6A at 9 and 15; EMSA: LightShift kit, 20 pmol RNA, 6 ug IGF2BP1-Flag, 2 ug RBRP, room temperature 30 min, then 0.2% glutaraldehyde (1 ul) on ice 15 min, 6% TBE gel; recombinant protein; protein details: Flag; label: biotin 5'. Background: A gel shift assay detects complexes by their altered migration in electrophoresis.

A further data set addresses IGF2BP1-HA WT (UniProt Q9NZI8). In words: pull-down. To be noted: RBRP (ORF-Flag) coexpressed; m6A at 9 and 15; Pull-down: 1 nmol biotin-RNA on streptavidin-agarose, nuclear extract, 30 C 30 min, immunoblot; protein in an extract; protein details: HA; label: biotin 5'.
[3] abbreviates: with or without RBRP overexpression, label: biotin 5'.
The mark [4] stands for this setting: enhanced by RBRP WT, not G19A, m6A at 8, 14, 20 and 31, label: biotin ….
The mark [5] stands for this setting: enhanced by RBRP, m6A at 9 and 15, label: biotin 5'.
Setting [6] is: enhanced by RBRP WT, not G19A, m6A at 8 and 30, label: biotin 5'.

In the case of “AGUUGAAACACAAACUUGAACAGCUACGGAACUCUU [c-Myc CRD2-A]”, the binding result in data set [1] (setting [3]) was “no binding”.
For the sequence “AGUUGAAACACAAACUUGAACAGCUACGGAACUCUU [c-Myc CRD2-m6A]”, the binding result is on record as “binds” with HuR (setting [4]); “binds” in data set [1] (enhanced by RBRP (ORF), not by 5'UTR-ORFmut or RBRP G19A, m6A at 8, 14, 20 and 31, label: biotin …); “binds” with MATR3 (setting [4]); “binds” in the data set with PABPC1 (setting [4]).
Regarding CGUCUCGGACUCGGACUGCU [ss-A], the binding result in data set [1] (setting [3]) is “no binding”.
As to CGUCUCGGACUCGGACUGCU [ss-m6A], the binding result in data set [2] is recorded as “binds”; in the data set with HuR (setting [5]) it was “binds”; in data set [1] (enhanced by RBRP (ORF), not by 5'UTR-ORFmut or RBRP G19A, m6A at 9 and 15, label: biotin 5'), “binds”; with IGF2BP1-HA WT it was “binds”; with MATR3 (setting [5]) it was “binds”; with PABPC1 (setting [5]) it was “binds”.
For “GAAGAGGACUUGUUGCGGAAACGACGAGAACAGUU [c-Myc CRD1-A]”, the binding result in data set [1] (setting [3]) was “no binding”.
Turning to “GAAGAGGACUUGUUGCGGAAACGACGAGAACAGUU [c-Myc CRD1-m6A]”, the binding result in the data set with HuR (setting [6]) is “binds”; in data set [1] (enhanced by RBRP (ORF), not by 5'UTR-ORFmut or RBRP G19A, m6A at 8 and 30, label: biotin 5') it was “binds”; with MATR3 (setting [6]), “binds”; in the data set with PABPC1 (setting [6]) it was “binds”.
